This is an account of results in US9134318B2, “Detection of oxidized polypeptides” (Purdue Research Foundation, priority 2009, dated 2015).

In this data set the test system is carbonylated peptides (carbonylation sites) of plasma proteins. Nature of the data set: SRM relative quantification of carbonylation sites, diabetic vs lean rat plasma (Example 5, Table 15). Particulars: for Ratio (diabetic plasma pooled sample/lean plasma pooled sample) replicate 1 / Ratio (diabetic plasma pooled sample/lean plasma pooled sample) replicate 2: SRM of the peptide carrying the carbonylation site (modification and site in the same table row), pooled Zucker diabetic vs lean rat plasma; for Average: average of replicate 1 and 2 ratios, diabetic/lean pooled plasma, SRM, per carbonylation site; for Average (diabetic/lean rat plasma pooled sample): SRM ratio. The class given is in vivo, Zucker diabetic and lean rats.

Where “and” joins values, the source holds several entries; their conditions need not be identical. Equal values may be shown once. No dose or concentration is given here for some results.

For the substance major beta-hemoglobin, the “Ratio (diabetic plasma pooled sample/lean plasma pooled sample) replicate 1” value is reported as 7.19, the “Ratio (diabetic plasma pooled sample/lean plasma pooled sample) replicate 2” value came out at 2.21 and the Average came to 4.70. For the same substance, for the setting “carbonylated peptide: Biotinylated oxidized lysine, site 77 (Gi|204570)”, the “Average (diabetic/lean rat plasma pooled sample)” value is 4.70.

For Albumin [Albumin [Rattus norvegicus]], the “Ratio (diabetic plasma pooled sample/lean plasma pooled sample) replicate 1” value is on record as 1.20, the “Ratio (diabetic plasma pooled sample/lean plasma pooled sample) replicate 2” value came to 1.00 and the Average turned out to be 1.10.

Consider complement component 3, for which the “Ratio (diabetic plasma pooled sample/lean plasma pooled sample) replicate 1” value is 2.71 and 1.62; the “Ratio (diabetic plasma pooled sample/lean plasma pooled sample) replicate 2” value was 2.57 and 1.09; the Average was 2.64 and 1.35. Also, the “Average (diabetic/lean rat plasma pooled sample)” value (carbonylated peptide: Biotinylated oxidized arginine, site 656 (gi|8393024)) is 1.35. For the setting “carbonylated peptide: Biotinylated oxidized arginine, site 688 (gi|8393024)”, the “Average (diabetic/lean rat plasma pooled sample)” value is on record as 2.64.

In the case of hemoglobin alpha 2 chain, the “Ratio (diabetic plasma pooled sample/lean plasma pooled sample) replicate 1” value was 25.88 and 1.94 and 0.52; the “Ratio (diabetic plasma pooled sample/lean plasma pooled sample) replicate 2” value was 14.54 and 2.06 and 0.87; the Average is 20.21 and 2.00 and 0.69. Further, the “Average (diabetic/lean rat plasma pooled sample)” value (carbonylated peptide: Biotinylated HNE adduct, site 69 (gi|60678292)) worked out at 20.21. Besides, the “Average (diabetic/lean rat plasma pooled sample)” value (carbonylated peptide: Biotinylated glyoxal, site 17 (gi|60678292)) amounted to 0.52. For the same substance, the “Average (diabetic/lean rat plasma pooled sample)” value (carbonylated peptide: Biotinylated malodialdehyde, site 12 (gi|60678292)) is reported as 2.00.

As to hemoglobin beta-chain, the “Ratio (diabetic plasma pooled sample/lean plasma pooled sample) replicate 1” value was 0.79, the “Ratio (diabetic plasma pooled sample/lean plasma pooled sample) replicate 2” value was found to be 1.25 and the Average was 1.02. Further, the “Average (diabetic/lean rat plasma pooled sample)” value (carbonylated peptide: Biotinylated deoxyglucosone adduct, site 49 (Gi|204352)) is recorded as 1.02.
